The other results are listed elsewhere or left out. Shown are side measurements of this screen, not its main read-out; they come without a call. Compounds called inactive in the main read-out are mostly missing here. Potencies come from curve fits of mixed quality, noted in brackets.
Test: qHTS Assay to Find Inhibitors of Chronic Active B-Cell Receptor Signaling
Details: ABC-DLBCL IkBa-CBG/CBR reporter, luminescence ratio (green luciferase fused to IkBa over red control in TMD8 lymphoma cells), 4 h; measured here: CBR red luminescence, cell number
Method in brief: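 Cell line TMD8 (human ABC DLBCL), stably expressing tet-inducible CBG68-IkBa fusion and CBR; IMDM/0.5% FBS; cpd up to 46 uM; dox induction, 4 h, 37C/5% CO2; dual luminescence; green/red ratio; MG132 control.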

| SMILES | AC50 |
| --- | --- |
| Nc1nc(-c2ccc(Cl)cc2)nn1C(=O)c1ccco1 | 8.91 µM [falling, partial curve, poor fit] |
| O=C(CCc1ccccc1)Nc1nc2c(F)cc(F)cc2s1 | 5.62 µM [falling, partial curve, poor fit] |
| Cc1ccc(OCc2ccc(Br)cc2)c([N+](=O)[O-])n1 | 3.16 µM [rising, full curve, poor fit] |
| N#Cc1c(NC(=O)CCC(=O)O)sc2c1CCCC2 | 18.4 µM [falling, partial curve, poor fit] |
| O=C(Cc1ccc(Cl)cc1)Nc1ncc([N+](=O)[O-])s1 | 5.62 µM [falling, partial curve] |
| CC(=O)Nc1nnc(COc2ccccc2)s1 | 35.5 µM [falling, single point] |
| COc1ccccc1NC(=O)CN1CCN(CC(=O)Nc2ccccc2Cl)CC1 | 3.98 µM [falling, partial curve, poor fit] |
| COc1cc(O)c(C(CCN2CCCC2)c2cc(OC)c(OC)c(OC)c2)c(OC)c1 (stereo not drawn) | 3.55 µM [rising, single point] |
| COCCn1c(C)cc(C(=O)COC(=O)c2ccc(-n3nc(C)cc3C)cc2)c1C | 0.891 µM [rising, full curve, poor fit] |
| C=CCN(c1ccccc1)S(=O)(=O)c1cccc(C(=O)NCC(c2ccccc2OC)N2CCCC2)c1 (stereo not drawn) | 18.4 µM [falling, single point] |
| COc1cc(C(=O)OCC(=O)N2CCN(C(C)=O)CC2)ccc1OCC(C)C | 3.66 µM [rising, single point] |
| COCCN(C(=O)Nc1ccccc1)c1ccccc1 | 25.9 µM [rising, single point] |
| Cc1[nH]n(C2=NCCS2)c(=O)c1N=Nc1ccccc1 | 15.8 µM [falling, partial curve, poor fit] |
| O=C(c1ccc([N+](=O)[O-])cc1)n1nc(-c2ccccc2)nc1NCc1ccc(F)cc1 | 1.16 µM [rising, full curve, poor fit] |
| Cc1ccc(NS(=O)(=O)c2cc3c4c(cccc4c2)C(=O)NC3=O)cc1C | 8.91 µM [falling, partial curve, poor fit] |
| Cc1c(CCOC(=O)c2ccccc2)sc[n+]1CC(=O)c1ccc(Br)cc1 | 22.4 µM [falling, partial curve] |
| COc1ccc(NS(=O)(=O)c2cccc(C(=O)NNC(=O)c3ccc(Br)o3)c2)cc1 | 10.3 µM [falling, partial curve, poor fit] |
| CC/C(C)=N/NC(=S)NCc1ccco1 | 16.4 µM [falling, single point] |

An excerpt from above in order of length of the SMILES, smallest number first.

| SMILES | AC50 |
| --- | --- |
| COCCN(C(=O)Nc1ccccc1)c1ccccc1 | 25.9 µM [rising, single point] |
| O=C(Cc1ccc(Cl)cc1)Nc1ncc([N+](=O)[O-])s1 | 5.62 µM [falling, partial curve] |
| O=C(c1ccc([N+](=O)[O-])cc1)n1nc(-c2ccccc2)nc1NCc1ccc(F)cc1 | 1.16 µM [rising, full curve, poor fit] |
